Here are results for three substances from PMC6208443 (Nature Communications, 2018).

In one series the test system is EDM2. The series is described as follows: Peptide affinity purification and mass spectrometry, EDM2. The series is classed as binding, Arabidopsis thaliana. Conditions: pull-down of nuclear extracts of Arabidopsis flowers with 2 μg biotinylated peptide, 3 h, 4 °C; LC-MS/MS. On the procedure: To extract the nuclear proteins for peptide affinity purification, 1 g of wild-type Arabidopsis flowers was harvested and ground in liquid nitrogen. […] The filtrates were centrifuged at 2000 g for 15 min at 4 °C to precipitate the nuclei. Nuclear pellets were washed two times with 1 ml of Honda buffer and then were resuspended in 600 μl of Nuclei Lysis Buffer (50 mM Tris-HCl pH 8.0, 150 mM NaCl, 1% NP40, 0.5 mM DTT, 1 mM PMSF, Roche protease inhibitor cocktail). After sonication, nuclei extracts were centrifuged at 20,000 g for 10 min at 4 °C. The supernatant was incubated with 2 μg of biotinylated histone peptides and Streptavidin Magnetic Beads (Thermo Scientific, 88816) for 3 h with rotation at 4 °C. […] After incubation, beads were washed three times with wash buffer 1 (320 mM NaCl, 50 mM Tris-HCl pH 8.0, 0.5% NP40), and three times with wash buffer 2 (150 mM NaCl, 50 mM Tris-HCl pH 8.0).
For LC-MS/MS analysis, IP beads with captured proteins were lysed in 12 mM sodium deoxycholate (SDC)-sodium lauroyl sarcosinate (SLS): 100 mM Tris-HCl (pH 8.5), 12 mM SDC, and 12 mM SLS. […] The dried peptides were resuspended in 30 μL of 0.3% formic acid (FA) with 3% acetonitrile (ACN), quantified by BCA assay (Thermo Fisher Scientific), and injected into an Easy-nLC 1000 (Thermo Fisher Scientific). […]

The subject of another series is CHR17. In words: Peptide affinity purification and mass spectrometry, CHR17. It counts as binding, Arabidopsis thaliana. The note with it: pull-down of nuclear extracts of Arabidopsis flowers with 2 μg biotinylated peptide, 3 h, 4 °C; LC-MS/MS.

In the case of “H3(1-21)K9me1: synthesized biotinylated H3(1-21)K9me1 peptide, EMD Millipore”, in the series on EDM2, the “Coverage (%)” value was 5.47%.
On the same count and under the same terms, the value for “H3(1-21)K9me2: synthesized biotinylated H3(1-21)K9me2 peptide, EMD Millipore” was 4.39%.
Take “H3(1-21)K9me3: synthesized biotinylated H3(1-21)K9me3 peptide, EMD Millipore”: the “Coverage (%)” value with CHR17 is recorded as 4.66%.
